Results from PubChem BioAssay AID2685 (National Center for Advancing Translational Sciences (NCATS), 2010).
Some of the results follow. The main result of the screen is listed elsewhere. These columns were measured beside it and carry no call. Compounds called inactive in the main read-out are mostly missing here. Words in brackets tell the shape of the fitted curve; partial curves, single points and poor fits give uncertain potencies.

Assay: qHTS Assay for Lipid Storage Modulators in Drosophila S3 Cells;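 on cell number change: cells counted by Cell Tracker Red CMTPX staining in the red channel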
Settings: BODIPY lipid droplet fluorescence, 18-24 h; for cell number change: measured here: cell count max response, cells fed with added oleic acid
How it was run: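 Drosophila S3 cells got compounds at several concentrations plus oleic acid (400 uM solution). Laser-scanning cytometry with 488 nm excitation read lipid droplets at 500-530 nm and cells at 575-640 nm. Percent activity was relative to 20 uM Triacsin C.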

[1] = measured here: cell number channel AC50, cells fed with added oleic acid
[2] = measured here: lipid fluorescence (Fed channel) AC50, cells fed with added oleic acid

| Compound | cell number change [%] | AC50 [1] | AC50 [2] |
| --- | --- | --- | --- |
| CN1CCN(c2ccccc2NC(=O)c2sc3ccccc3c2Cl)CC1 | -30.7 | 29.1 µM [falling, partial curve, poor fit] | 0.146 µM [falling, full curve, poor fit] |
| O=C1OCCC/C1=C\c1ccc2c(c1)OCO2 | 32.3 | 23.1 µM [rising, single point] |  |
| S=C(Nc1cccc(Br)c1)c1ccccc1 | 8.39 |  | 29.1 µM [rising, single point] |
| COC(=O)c1c(NC(=O)C(C)C)sc(C(=O)N2CCOCC2)c1C | -3.95 |  | 0.1 µM [falling, full curve, poor fit] |
| C=CCOc1nc2c(c(=O)n(C)c(=O)n2C)n1Cc1ccc(Cl)cc1Cl |  | 0.231 µM [rising, full curve] |  |
| CCOC(=O)N1CCC(N(CCN(C)C)C(=S)Nc2ccc(F)c(Cl)c2)CC1 | 50.1 | 29.1 µM [rising, partial curve, poor fit] | 29.1 µM [rising, single point] |
| COc1cc2[nH]c(C(=O)N3CCC(Cc4ccccc4)CC3)cc2c(OC)c1OC |  |  | 0.58 µM [rising, single point] |
| COc1ccc(Cl)cc1NC(=O)C1CCCO1 (stereo unspecified) | 4.21 |  |  |
| C=C(C)Cn1c(=O)c2c(nc3n2CC(C)CN3Cc2ccccc2)n(C)c1=O (stereo unspecified) | 6.12 |  | 2.31 µM [rising, single point] |
| CCOC(=O)c1ccccc1NC(=O)/C=C/c1cc(OC)c(OC)c(OC)c1 | 12.2 |  | 0.58 µM [rising, single point] |
| Cc1ccccc1NCN1C(=O)C2C3C=CC(C3)C2C1=O (stereo unspecified) | 3.9 |  | 1.46 µM [falling, full curve, poor fit] |
| CC(C)C(=O)NC(c1cccc([N+](=O)[O-])c1)c1ccc2cccnc2c1O (stereo unspecified) | -21.2 |  | 29.1 µM [falling, single point] |
| O=C(Cc1ccccc1[N+](=O)[O-])NCCCc1ccccc1 | 17.3 |  | 29.1 µM [rising, single point] |
| Cc1ccc(N2C(=O)C3CC(c4ccccc4)=C4C5C=CC(C6C(=O)N(c7ccc(C)cc7C)C(=O)C56)C4C3C2=O)c(C)c1 (stereo unspecified) |  | 1.64 µM [rising, partial curve, poor fit] | 1.46 µM [rising, partial curve] |
| CC(=O)N1CCOc2cc(S(=O)(=O)Nc3c(C)cccc3C(C)C)c(Cl)cc21 | 10.4 |  | 0.164 µM [rising, full curve, poor fit] |
| COc1ccc(N=c2cc(-c3ccc(OC)cc3)oc3ccccc23)cc1 | -52.8 | 23.1 µM [falling, single point] | 29.1 µM [falling, single point] |
| Cc1ccccc1Cn1c(=O)n(C)c(=O)c2sccc21 | -36 |  |  |
| CCOC(=O)C1=C(C)N(c2ccccc2)C(=O)/C1=C\c1ccc(O)c(OC)c1 | -51.8 | 16.4 µM [falling, single point] | 25.9 µM [falling, single point] |
| COc1ccc(Nc2nc(-c3ccccc3)cs2)cc1 | 20.6 | 0.92 µM [rising, full curve] | 1.03 µM [rising, full curve] |
| O=C(Nc1cccnc1)NC1CCCCC1 | -19 |  | 5.17 µM [falling, single point] |

| Compound | cell number change [%] | AC50 [1] | AC50 [2] |
| --- | --- | --- | --- |
| O=C(c1ccc(-c2ccccc2)c(F)c1)C1CCCN(C(=O)c2cncs2)C1 (stereo unspecified) | -23.1 |  | 29.1 µM [falling, single point] |
| Oc1ccc(Cc2ncc(C(F)(F)F)cc2Cl)cc1 | 3.13 | 0.00517 µM [falling, full curve, poor fit] | 0.00517 µM [falling, full curve, poor fit] |
| Cc1ccc2nc(-c3ccncc3)cc(C(=O)Nc3ccncc3)c2c1 | 7.11 | 7.31 µM [rising, partial curve, poor fit] | 0.259 µM [rising, full curve, poor fit] |
| CN(CC(=O)NCc1cccnc1)S(=O)(=O)c1cc(Cl)ccc1Cl |  | 0.92 µM [rising, full curve] |  |
| O=[N+]([O-])c1cccc(S(=O)(=O)N2CCN(S(=O)(=O)N3CCCCCC3)CC2)c1 | -0.451 |  |  |
| Cc1ccc(-c2nc(CS(=O)CC(=O)N3CCN(c4ccc(F)cc4)CC3)c(C)o2)cc1 (stereo unspecified) | -43.5 | 29.1 µM [falling, single point] |  |
| OCc1cccc(Nc2ncnc3sc4c(c23)CCCCC4)c1 | 9.4 |  | 0.731 µM [rising, single point] |
| O=C(NC1CCCCC1)c1cc(-c2ccc(F)cc2)on1 |  |  | 29.1 µM [falling, single point] |
| Cc1nc(CSc2ccccc2)cc(=O)[nH]1 | -15.4 | 4.11 µM [falling, partial curve, poor fit] | 2.31 µM [falling, partial curve] |
| O=C1/C(=C/c2ccc(O)cc2)COc2ccccc21 | 5.56 |  | 0.731 µM [falling, full curve, poor fit] |
| OCC1(Cc2ccc(F)cc2)CCCN(Cc2ccc(F)cc2Cl)C1 (stereo unspecified) | -12.6 |  |  |
| COc1ccc2c(c1OC)C(=O)N1C2SC[C@H]1C(=O)NC1CC(C)(C)NC(C)(C)C1 (stereo partly specified) | -37.4 | 20.6 µM [falling, single point] | 29.1 µM [falling, single point] |
| Cc1cc(N2CCCCC2)nc(N2CCCCC2)n1 | 6.63 |  | 1.03 µM [rising, single point] |
| NC(=O)COc1ccc(NC(=O)OCc2ccccc2)cc1 | 83.9 |  |  |
| O=C(COC(=O)c1ccc2ncsc2c1)Nc1cc([N+](=O)[O-])ccc1Cl | -47.4 | 10.3 µM [falling, partial curve] | 29.1 µM [falling, single point] |
| COc1ccc(CN2C(=O)c3cccnc3C2=O)cc1S(=O)(=O)N1CCCCC1 |  |  | 11.6 µM [falling, single point] |
| CSc1cccc(NC(=O)CN(C)S(=O)(=O)c2cnc[nH]2)c1 |  |  | 0.58 µM [rising, single point] |
| O=C(OCC(=O)N1CCN(c2ccccc2)CC1)c1ccc[n+]([O-])c1 | 16.4 |  | 14.1 µM [rising, single point] |
| Cc1c(-c2ncn[nH]2)sc(C#N)c1-c1ccccc1 | 65.6 | 23.1 µM [rising, single point] | 6.51 µM [falling, partial curve] |
| O=C(COC(=O)c1cc(=O)c2ccccc2o1)Nc1cc(Cl)ccc1Cl | 12.1 | 0.116 µM [rising, partial curve, poor fit] |  |

Of the compounds above, two have two or more sulfur atoms:

| Compound | cell number change [%] | AC50 [1] | AC50 [2] |
| --- | --- | --- | --- |
| O=[N+]([O-])c1cccc(S(=O)(=O)N2CCN(S(=O)(=O)N3CCCCCC3)CC2)c1 | -0.451 |  |  |
| CSc1cccc(NC(=O)CN(C)S(=O)(=O)c2cnc[nH]2)c1 |  |  | 0.58 µM [rising, single point] |

Remaining list, next part

| Compound | cell number change [%] | AC50 [1] | AC50 [2] |
| --- | --- | --- | --- |
| COc1ccc(C2(C)NC(=O)N(Cc3cc(Cl)cc4c3OCOC4)C2=O)cc1OC (stereo unspecified) | -18.4 |  | 0.651 µM [rising, single point] |
| COc1ccc(NC(=O)CCN2CCN(S(=O)(=O)c3cc(Cl)ccc3OC)CC2)cc1 | 77.3 | 16.4 µM [rising, partial curve] |  |
| Cc1ccccc1Nc1nc(N)nc(COC(=O)c2ccc(S(=O)(=O)N(C)C)cc2)n1 | -0.883 |  | 1.64 µM [rising, partial curve] |
| O=C(NNC(=O)c1ccc(Cl)s1)c1csc(N2CCOCC2)n1 | 85.2 | 29.1 µM [rising, single point] |  |
| Cc1cc(C)n(CC(=O)c2cccc(N)c2)n1 | 176 |  |  |
| O=C1CN(C(=O)CSc2nc3ccccc3n2CCc2ccccc2)c2ccccc2N1 | 11.5 |  |  |
| Cc1cccc(Sc2ccc([N+](=O)[O-])cc2[N+](=O)[O-])n1 |  |  | 29.1 µM [falling, single point] |
| O=C(COc1ccc2oc(-c3ccccc3)cc(=O)c2c1)NCc1ccco1 | -82.4 | 14.6 µM [falling, partial curve] | 20.6 µM [falling, partial curve, poor fit] |
| COC(=O)c1ccc(-c2sc3nc(N4CCOCC4)c4c(c3c2N)CCCC4)o1 | 49.8 | 0.082 µM [rising, full curve] | 0.116 µM [rising, full curve] |
| Nc1ccc(Br)cc1-c1nc2ccccc2[nH]c1=O | -10.9 |  | 0.00411 µM [rising, full curve, poor fit] |
| N#Cc1nc(-c2ccc(OCc3ccccc3)cc2)oc1N1CCOCC1 | 17.7 |  | 29.1 µM [rising, partial curve, poor fit] |
| Cc1cc(N2CCCCCC2)nc2ccccc12 | -19.3 |  | 0.0058 µM [falling, full curve, poor fit] |
| CC1CN(C(=O)COC(=O)c2cccs2)CC(C)O1 (stereo unspecified) | -15.2 |  | 16.4 µM [falling, partial curve] |
| O=Cc1c(NCCc2ccc(F)cc2)c2ccccc2[nH]c1=O | 23.3 |  | 23.1 µM [falling, single point] |
| CCOC(=O)CNC(=O)c1cnc(Nc2ccccc2OC)c2ccccc12 | 28.4 |  |  |
| COCCCN=C1NN=C(c2cc(C)n(-c3ccccc3)c2C)CS1 | 16.2 |  | 2.59 µM [rising, single point] |
| O=C(Nc1cccc(-n2cnnn2)c1)c1ccc(Cl)cc1Cl | -73.6 | 25.9 µM [falling, single point] | 29.1 µM [falling, single point] |
| O=c1oc2ccccc2c2c1ncn2-c1ccccc1 | -10.6 |  | 0.731 µM [falling, full curve, poor fit] |
| CSc1nnc(-c2ccccc2)c(=O)[nH]1 | -0.0698 |  |  |
